Test results published in the supplement of paper PMC10849652.
The list shows a part of the results.

Chains of the proteins cited; added tags and fusions are not shown. Lines headed by an entry give the natural chain unless they say otherwise; changes in a name come on top.
UniProt Q16531, whole entry, looked up: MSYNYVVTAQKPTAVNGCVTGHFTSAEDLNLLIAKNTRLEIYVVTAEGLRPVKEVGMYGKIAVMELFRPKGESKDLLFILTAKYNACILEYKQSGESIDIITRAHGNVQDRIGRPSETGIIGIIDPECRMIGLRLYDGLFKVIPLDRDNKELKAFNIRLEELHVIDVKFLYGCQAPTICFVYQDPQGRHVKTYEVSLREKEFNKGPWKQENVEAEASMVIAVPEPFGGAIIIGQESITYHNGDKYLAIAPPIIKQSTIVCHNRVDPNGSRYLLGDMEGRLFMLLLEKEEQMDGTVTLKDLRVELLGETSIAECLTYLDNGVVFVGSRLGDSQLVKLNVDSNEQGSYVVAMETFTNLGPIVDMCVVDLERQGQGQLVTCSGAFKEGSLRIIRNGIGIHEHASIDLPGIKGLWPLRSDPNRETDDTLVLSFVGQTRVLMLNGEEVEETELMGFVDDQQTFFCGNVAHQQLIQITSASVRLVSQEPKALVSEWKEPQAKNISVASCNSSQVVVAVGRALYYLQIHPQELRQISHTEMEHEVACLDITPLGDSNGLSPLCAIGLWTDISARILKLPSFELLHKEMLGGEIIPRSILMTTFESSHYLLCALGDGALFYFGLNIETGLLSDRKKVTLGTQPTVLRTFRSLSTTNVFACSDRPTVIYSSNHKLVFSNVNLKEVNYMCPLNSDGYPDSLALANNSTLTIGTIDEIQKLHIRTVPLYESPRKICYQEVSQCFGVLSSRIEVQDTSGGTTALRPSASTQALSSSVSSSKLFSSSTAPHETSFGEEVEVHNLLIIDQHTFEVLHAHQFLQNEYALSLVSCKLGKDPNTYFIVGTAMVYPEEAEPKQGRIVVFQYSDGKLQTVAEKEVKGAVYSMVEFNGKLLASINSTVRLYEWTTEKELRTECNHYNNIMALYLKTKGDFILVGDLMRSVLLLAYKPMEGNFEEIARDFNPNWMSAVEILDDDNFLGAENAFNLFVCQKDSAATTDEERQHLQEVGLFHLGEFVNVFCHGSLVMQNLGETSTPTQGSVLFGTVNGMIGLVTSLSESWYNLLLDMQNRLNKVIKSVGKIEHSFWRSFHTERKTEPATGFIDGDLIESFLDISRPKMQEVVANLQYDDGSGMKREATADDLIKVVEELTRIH
UniProt Q9GZP9: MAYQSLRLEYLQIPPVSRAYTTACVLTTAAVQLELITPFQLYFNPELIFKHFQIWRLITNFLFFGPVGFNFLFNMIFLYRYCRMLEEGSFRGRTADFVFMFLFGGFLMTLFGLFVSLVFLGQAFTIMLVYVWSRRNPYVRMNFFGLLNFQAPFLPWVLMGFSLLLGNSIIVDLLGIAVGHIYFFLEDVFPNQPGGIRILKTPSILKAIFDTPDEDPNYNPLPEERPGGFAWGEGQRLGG
UniProt O60610, whole entry, looked up: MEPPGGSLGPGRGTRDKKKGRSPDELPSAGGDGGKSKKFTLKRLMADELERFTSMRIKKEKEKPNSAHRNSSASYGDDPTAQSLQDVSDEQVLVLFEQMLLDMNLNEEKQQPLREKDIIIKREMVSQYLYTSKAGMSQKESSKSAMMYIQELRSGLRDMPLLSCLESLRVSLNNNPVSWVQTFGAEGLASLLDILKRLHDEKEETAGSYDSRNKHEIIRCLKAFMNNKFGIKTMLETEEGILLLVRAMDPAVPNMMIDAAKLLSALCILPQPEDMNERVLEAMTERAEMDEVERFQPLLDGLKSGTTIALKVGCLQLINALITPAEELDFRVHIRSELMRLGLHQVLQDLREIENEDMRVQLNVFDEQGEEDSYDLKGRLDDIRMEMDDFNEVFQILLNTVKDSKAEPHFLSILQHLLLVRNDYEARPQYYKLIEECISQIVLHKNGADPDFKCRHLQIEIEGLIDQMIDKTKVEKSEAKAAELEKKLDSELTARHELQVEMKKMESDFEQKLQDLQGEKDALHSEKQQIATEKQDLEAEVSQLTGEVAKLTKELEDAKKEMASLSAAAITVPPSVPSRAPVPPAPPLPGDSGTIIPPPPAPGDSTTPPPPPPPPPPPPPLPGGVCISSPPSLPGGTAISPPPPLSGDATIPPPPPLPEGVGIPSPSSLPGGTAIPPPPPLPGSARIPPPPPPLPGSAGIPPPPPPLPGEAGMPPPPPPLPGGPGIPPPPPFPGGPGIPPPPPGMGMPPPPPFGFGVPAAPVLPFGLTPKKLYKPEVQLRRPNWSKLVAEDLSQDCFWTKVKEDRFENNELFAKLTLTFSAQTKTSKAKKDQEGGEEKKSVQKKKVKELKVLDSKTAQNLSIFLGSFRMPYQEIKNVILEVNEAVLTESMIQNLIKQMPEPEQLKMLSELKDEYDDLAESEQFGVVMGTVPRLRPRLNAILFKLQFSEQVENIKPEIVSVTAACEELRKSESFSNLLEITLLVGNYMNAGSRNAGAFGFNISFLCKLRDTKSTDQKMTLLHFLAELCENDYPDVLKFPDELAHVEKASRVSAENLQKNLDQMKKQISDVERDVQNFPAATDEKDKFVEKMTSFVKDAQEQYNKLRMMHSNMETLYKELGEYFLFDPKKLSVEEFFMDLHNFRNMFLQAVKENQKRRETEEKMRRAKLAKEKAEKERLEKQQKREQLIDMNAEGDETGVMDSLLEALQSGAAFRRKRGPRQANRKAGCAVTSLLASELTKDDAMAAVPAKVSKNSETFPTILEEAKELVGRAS
UniProt Q9Y222: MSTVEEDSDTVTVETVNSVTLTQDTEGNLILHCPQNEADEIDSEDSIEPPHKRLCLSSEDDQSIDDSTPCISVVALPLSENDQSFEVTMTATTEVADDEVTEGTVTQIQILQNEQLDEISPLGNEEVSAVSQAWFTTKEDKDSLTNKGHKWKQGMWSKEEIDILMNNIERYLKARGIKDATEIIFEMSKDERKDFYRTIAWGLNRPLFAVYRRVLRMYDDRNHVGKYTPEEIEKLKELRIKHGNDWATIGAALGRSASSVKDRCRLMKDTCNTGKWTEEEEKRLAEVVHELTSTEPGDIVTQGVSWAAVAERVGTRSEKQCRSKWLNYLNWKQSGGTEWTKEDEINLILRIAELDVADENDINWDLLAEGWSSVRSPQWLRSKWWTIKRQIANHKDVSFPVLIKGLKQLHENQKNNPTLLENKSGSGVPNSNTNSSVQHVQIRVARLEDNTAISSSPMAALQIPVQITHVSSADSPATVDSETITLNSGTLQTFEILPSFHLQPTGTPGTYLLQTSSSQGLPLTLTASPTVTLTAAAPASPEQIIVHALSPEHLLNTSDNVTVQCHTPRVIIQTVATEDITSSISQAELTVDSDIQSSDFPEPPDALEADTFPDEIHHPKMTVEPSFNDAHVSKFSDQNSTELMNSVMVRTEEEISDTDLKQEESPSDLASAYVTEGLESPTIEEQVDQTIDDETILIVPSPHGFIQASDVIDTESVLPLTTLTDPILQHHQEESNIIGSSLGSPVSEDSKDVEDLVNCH
UniProt P09622, whole entry, looked up: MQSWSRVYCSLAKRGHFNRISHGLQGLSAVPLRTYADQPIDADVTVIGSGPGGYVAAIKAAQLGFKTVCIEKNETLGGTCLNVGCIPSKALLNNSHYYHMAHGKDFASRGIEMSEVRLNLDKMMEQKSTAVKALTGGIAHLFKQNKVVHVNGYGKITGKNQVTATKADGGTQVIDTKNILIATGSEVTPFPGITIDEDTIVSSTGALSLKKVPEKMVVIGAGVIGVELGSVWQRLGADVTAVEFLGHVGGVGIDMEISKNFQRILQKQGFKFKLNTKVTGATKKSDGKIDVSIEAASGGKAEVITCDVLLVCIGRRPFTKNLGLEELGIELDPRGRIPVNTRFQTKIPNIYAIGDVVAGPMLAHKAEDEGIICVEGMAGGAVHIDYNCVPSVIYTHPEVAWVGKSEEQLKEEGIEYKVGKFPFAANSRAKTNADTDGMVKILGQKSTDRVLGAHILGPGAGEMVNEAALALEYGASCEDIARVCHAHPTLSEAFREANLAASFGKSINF
UniProt Q9UBM7: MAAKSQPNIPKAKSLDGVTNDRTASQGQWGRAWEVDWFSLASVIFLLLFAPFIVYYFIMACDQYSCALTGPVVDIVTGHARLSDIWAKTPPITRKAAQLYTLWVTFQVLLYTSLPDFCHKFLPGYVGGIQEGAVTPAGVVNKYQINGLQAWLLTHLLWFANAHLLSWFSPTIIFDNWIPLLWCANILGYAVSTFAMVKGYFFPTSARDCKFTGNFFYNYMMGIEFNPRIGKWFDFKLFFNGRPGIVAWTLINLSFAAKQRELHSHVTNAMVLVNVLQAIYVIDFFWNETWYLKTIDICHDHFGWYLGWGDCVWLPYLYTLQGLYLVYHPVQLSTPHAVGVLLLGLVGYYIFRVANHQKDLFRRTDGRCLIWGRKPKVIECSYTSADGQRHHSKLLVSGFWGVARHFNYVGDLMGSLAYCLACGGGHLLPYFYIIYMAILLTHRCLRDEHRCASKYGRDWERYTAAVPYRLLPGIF
UniProt Q9NVR5: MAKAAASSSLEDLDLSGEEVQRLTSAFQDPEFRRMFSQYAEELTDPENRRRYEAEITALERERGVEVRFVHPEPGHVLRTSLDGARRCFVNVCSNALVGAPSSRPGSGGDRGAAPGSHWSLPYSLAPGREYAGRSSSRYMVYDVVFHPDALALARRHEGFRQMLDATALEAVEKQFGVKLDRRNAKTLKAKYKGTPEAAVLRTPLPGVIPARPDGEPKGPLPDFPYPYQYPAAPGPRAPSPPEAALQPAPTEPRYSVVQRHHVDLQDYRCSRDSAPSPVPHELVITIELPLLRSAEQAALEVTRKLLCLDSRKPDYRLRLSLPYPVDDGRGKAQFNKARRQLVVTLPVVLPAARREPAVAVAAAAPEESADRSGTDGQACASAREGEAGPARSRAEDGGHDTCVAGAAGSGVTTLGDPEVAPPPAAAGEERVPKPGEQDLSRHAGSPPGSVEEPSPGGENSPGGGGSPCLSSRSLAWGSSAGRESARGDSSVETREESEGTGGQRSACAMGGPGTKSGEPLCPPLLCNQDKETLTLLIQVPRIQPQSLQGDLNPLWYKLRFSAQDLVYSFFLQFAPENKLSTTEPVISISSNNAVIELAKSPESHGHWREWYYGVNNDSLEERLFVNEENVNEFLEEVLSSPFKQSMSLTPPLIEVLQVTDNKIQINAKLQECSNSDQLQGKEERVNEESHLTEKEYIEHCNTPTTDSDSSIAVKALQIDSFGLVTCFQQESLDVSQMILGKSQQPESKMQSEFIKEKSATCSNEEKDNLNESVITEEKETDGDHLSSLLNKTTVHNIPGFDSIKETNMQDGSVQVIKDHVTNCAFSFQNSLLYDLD
UniProt Q9H0S4: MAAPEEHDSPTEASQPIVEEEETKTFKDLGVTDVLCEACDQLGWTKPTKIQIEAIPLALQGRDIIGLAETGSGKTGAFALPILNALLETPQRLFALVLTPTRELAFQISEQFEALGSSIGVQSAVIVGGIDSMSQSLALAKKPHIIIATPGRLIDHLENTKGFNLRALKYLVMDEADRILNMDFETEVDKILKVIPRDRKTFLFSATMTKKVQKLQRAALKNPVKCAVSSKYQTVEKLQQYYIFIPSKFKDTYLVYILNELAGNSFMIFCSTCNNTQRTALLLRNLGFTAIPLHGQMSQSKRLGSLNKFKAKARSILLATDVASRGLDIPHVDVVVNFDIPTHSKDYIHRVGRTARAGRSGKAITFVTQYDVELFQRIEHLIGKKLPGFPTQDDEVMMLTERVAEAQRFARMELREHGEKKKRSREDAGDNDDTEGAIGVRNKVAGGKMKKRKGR
UniProt Q8NEL9: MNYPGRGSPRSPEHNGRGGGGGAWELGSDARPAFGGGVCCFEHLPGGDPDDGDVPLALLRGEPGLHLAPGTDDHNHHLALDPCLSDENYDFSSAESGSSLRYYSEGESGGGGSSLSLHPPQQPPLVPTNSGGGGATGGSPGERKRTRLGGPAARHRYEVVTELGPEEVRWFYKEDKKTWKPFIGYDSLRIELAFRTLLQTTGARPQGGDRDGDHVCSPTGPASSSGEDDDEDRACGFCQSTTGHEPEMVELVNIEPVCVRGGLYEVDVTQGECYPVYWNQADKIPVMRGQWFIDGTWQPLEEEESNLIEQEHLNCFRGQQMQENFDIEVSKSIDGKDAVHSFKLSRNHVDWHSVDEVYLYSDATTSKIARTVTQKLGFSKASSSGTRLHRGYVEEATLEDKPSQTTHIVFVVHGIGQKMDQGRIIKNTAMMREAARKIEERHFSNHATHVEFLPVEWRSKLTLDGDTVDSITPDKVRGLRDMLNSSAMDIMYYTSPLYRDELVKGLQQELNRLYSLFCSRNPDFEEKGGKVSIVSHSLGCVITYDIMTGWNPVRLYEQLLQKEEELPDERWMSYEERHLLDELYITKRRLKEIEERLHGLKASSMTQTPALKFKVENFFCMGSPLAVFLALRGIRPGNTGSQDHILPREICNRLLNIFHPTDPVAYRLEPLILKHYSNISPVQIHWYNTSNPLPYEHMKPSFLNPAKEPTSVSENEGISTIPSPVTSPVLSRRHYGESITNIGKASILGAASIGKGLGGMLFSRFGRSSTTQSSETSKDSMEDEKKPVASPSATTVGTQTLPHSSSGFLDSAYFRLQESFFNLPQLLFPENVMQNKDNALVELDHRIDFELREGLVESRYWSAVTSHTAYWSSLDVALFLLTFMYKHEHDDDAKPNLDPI

Key:
Test in all cases: log2 fold change, soluble protein after heating vs DMSO (PISA); higher = thermal stabilisation; K562 cells, 10 uM, 30 min; active = over 0.2 and 3.5 SD of the protein, either way, in both replicates (recomputed)
[1] = compound: CN1CCN(CCOc2cc(OC3CCOCC3)c3c(Nc4c(Cl)ccc5c4OCO5)ncnc3c2)CC1 [saracatinib]
Summary of the method: (§1)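 Thermal stability values are relative to control samples and come from duplicates. They are expressed as log2 fold changes. For measurement, K562 cells (2×10^6 cells/mL) received 10 μM compound for 30 min, and aliquots were heated for 3 min over 48°C-58°C, pooled, and extracted at 4°C in PBS with 0.5% NP-40. Soluble protein, the supernatant after 21,000xg for 90 min, was quantified by TMTpro 16plex LC-MS/MS with equalised channel sums.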

[2] = compound: CN1CCN(c2nc(C3=C(c4c[nH]c5ccccc45)C(=O)NC3=O)c3ccccc3n2)CC1 [sotrastaurin]
Summary of the method: as §1

[3] = compound: CN1CCc2c(c3ccccc3n2Cc2ccc(C(=O)NO)cc2)C1 [Tubastatin A]
Summary of the method: as §1

[4] = compound: CNC(=O)C1=CC=CC=C1NC2=NC(=NC=C2Cl)NC3=C(C=C(C=C3)N4CCOCC4)OC
Summary of the method: as §1

[5] = compound: CNC(=O)c1ccc(Nc2ncc(C(F)(F)F)c(NCc3nccnc3N(C)S(C)(=O)=O)n2)cc1 [defactinib]
Summary of the method: as §1

[6] = compound: CNCc1ccc(-c2[nH]c3cc(F)cc4c3c2CCNC4=O)cc1 [rucaparib]
Summary of the method: as §1

[7] = compound: CNc1nc(-c2ccc3c(N)n[nH]c3c2)cc(N2C[C@@H](C(=O)NC3CCCCC3)CC[C@H]2C)n1
Summary of the method: as §1

[8] = compound: COC(=O)N[C@@H](C)CNc1nccc(-c2cn(C(C)C)nc2-c2cc(Cl)cc(NS(C)(=O)=O)c2F)n1 [encorafenib]
Summary of the method: as §1

[9] = compound: COC(=O)[C@H](CCSC)NC(=O)C1=C(C=C(C=C1)NC[C@H](CS)N)C2=CC=CC=C2
Summary of the method: as §1

[10] = compound: COC1=CC=C(C=C1)CN2C=CC3=C2C=C(C=C3)C(=O)NO
Summary of the method: as §1

[11] = compound: CON(C)C(=O)N1N=C(c2cc(F)ccc2F)S[C@@]1(CCCN)c1ccccc1 [filanesib]
Summary of the method: as §1

[12] = compound: CO[C@H]1C[C@@H]2CC[C@@H](C)[C@@](O)(O2)C(=O)C(=O)N2CCCC[C@H]2C(=O)O[C@H]([C@H](C)C[C@@H]2CC[C@H](n3cnnn3)[C@H](OC)C2)CC(=O)[C@H](C)/C=C(\C)[C@@H](O)[C@@H](OC)C(=O)[C@H](C)C[C@H](C)/C=C/C=C/C=C/1C [zotarolimus]
Summary of the method: as §1

[13] = compound: COc1cc(C(=O)O)ccc1NC(=O)[C@@H]1N[C@@H](CC(C)(C)C)[C@](C#N)(c2ccc(Cl)cc2F)[C@H]1c1cccc(Cl)c1F [idasanutlin]
Summary of the method: as §1

[14] = compound: COc1cc(Nc2ncc3c(n2)-c2ccc(Cl)cc2C(c2c(F)cccc2OC)=NC3)ccc1C(=O)O [alisertib]
Summary of the method: as §1

[15] = compound: COc1cc2nc(-c3cc(F)ccc3O)nc(N[C@@H]3CNC[C@H]3C(C)(C)O)c2cc1OC
Summary of the method: as §1

[16] = compound: COc1cc2ncnc(Nc3ccc(F)c(Cl)c3)c2cc1OCCCN1CCOCC1 [gefitinib]
Summary of the method: as §1

[17] = compound: COc1cccc2cc(-c3nc([C@H]4CC[C@H](C(=O)O)CC4)n4ncnc(N)c34)[nH]c12
Summary of the method: as §1

[18] = compound: CS(=O)(=O)CCNCc1ccc(-c2ccc3ncnc(Nc4ccc(OCc5cccc(F)c5)c(Cl)c4)c3c2)o1 [lapatinib]
Summary of the method: as §1

[19] = compound: CS(=O)(=O)N1CCN(Cc2cc3nc(-c4cccc5[nH]ncc45)nc(N4CCOCC4)c3s2)CC1 [pictilisib]
Summary of the method: as §1

[20] = compound: CN1CC[C@H](c2c(O)cc(O)c3c(=O)cc(-c4ccccc4Cl)oc23)[C@H](O)C1 [alvocidib]
Summary of the method: as §1

Target	log2 fold change [1]	log2 fold change [2]	log2 fold change [3]	log2 fold change [4]	log2 fold change [5]	log2 fold change [6]	log2 fold change [7]	log2 fold change [8]	log2 fold change [9]	log2 fold change [10]	log2 fold change [11]	log2 fold change [12]	log2 fold change [13]	log2 fold change [14]	log2 fold change [15]	log2 fold change [16]	log2 fold change [17]	log2 fold change [18]	log2 fold change [19]	log2 fold change [20]
DHRS7B (UniProt Q6IAN0)	inactive: -0.003	inactive: 0.148	inactive: -0.019	inactive: 0.051	inactive: -0.067	inactive: 0.029	inactive: 0.071	inactive: -0.008	inactive: -0.016	inactive: 0.012	inactive: 0.03	inactive: -0.058	inactive: -0.03	inactive: 0.012	active: 0.335	inactive: 0.056	inactive: -0.025	inactive: 0.109	inactive: -0.143	
DDX4 (UniProt Q9NQI0)	inactive: -0.342	inactive: 0.209	inactive: 0.102	inactive: -0.097	inactive: 0.11	inactive: 0.543	inactive: -0.095	inactive: 0.121	inactive: 0.067	inactive: -0.474	inactive: 0.186	inactive: 0.004	inactive: 0.42	inactive: 0.172	inactive: 0.368	inactive: 0.048	inactive: -0.715	inactive: -0.399	inactive: 0.17	
DDB1 (UniProt Q16531)	inactive: 0.04	inactive: 0.04	inactive: -0.025	inactive: 0.001	inactive: 0.002	inactive: -0.033	inactive: -0.035	inactive: 0.003	inactive: 0	inactive: -0.024	inactive: -0.015	inactive: -0.017	inactive: -0.029	inactive: -0.06	inactive: 0.006	inactive: -0.012	inactive: 0.061	inactive: -0.022	inactive: 0.025	
DFFB (UniProt O76075)	inactive: 0.017	inactive: 0.052	inactive: 0.07	inactive: 0.009	inactive: 0.024	inactive: 0.049	inactive: -0.016	inactive: -0.019	inactive: 0.033	inactive: -0.016	inactive: -0.141	inactive: -0.093	inactive: -0.03	inactive: -0.004	inactive: 0.06	inactive: -0.054	inactive: 0.041	inactive: -0.015	inactive: -0.074	
DIP2A (UniProt Q14689)	inactive: 0.082	inactive: 0.054	inactive: -0.094	inactive: 0.034	inactive: -0.059	inactive: 0.1	inactive: -0.009	inactive: 0	inactive: 0.077	inactive: -0.097	inactive: 0.028	inactive: -0.018	inactive: -0.047	inactive: 0.357	inactive: -0.098	inactive: 0.008	inactive: -0.004	inactive: -0.047	inactive: 0.103	
DHPS (UniProt P49366)	inactive: 0.087	inactive: 0.043	inactive: 0.005	inactive: -0.026	inactive: -0.027	inactive: -0.018	inactive: -0.053	inactive: -0.012	inactive: -0.011	active: 0.268	inactive: -0.024	inactive: -0.001	inactive: 0.03	inactive: -0.033	inactive: -0.047	inactive: -0.018	inactive: 0.063	inactive: 0.05	inactive: 0.024	
DERL2 (UniProt Q9GZP9)	inactive: 0.024	inactive: -0.01	inactive: 0.062		inactive: -0.063		inactive: 0.094		inactive: 0.07	inactive: 0.181	inactive: 0.083	inactive: 0.081	inactive: -0.142	inactive: 0.31	inactive: 0.038	inactive: 0.021	inactive: -0.065	inactive: -0.04	inactive: 0.332	inactive: -0.077
DHRS1 (UniProt Q96LJ7)	inactive: -0.074	inactive: 0.153	inactive: 0.022	inactive: 0.375	inactive: -0.007	inactive: 0.031	inactive: 0.392	inactive: -0.116	inactive: -0.116	inactive: 0.159	inactive: 0.061	inactive: 0.448	active: 0.952	inactive: -0.025	inactive: 0.115	inactive: 0.494	inactive: -0.113	inactive: 0.096	inactive: 0.009	
DIAPH1 (UniProt O60610)	inactive: -0.104	inactive: -0.276	inactive: 0.086	inactive: 0.044	inactive: -0.039	inactive: 0.219	inactive: 0.125	inactive: 0.215	inactive: -0.12	inactive: 0.008	inactive: 0.083	inactive: 0.081	inactive: 0.04	inactive: -0.099	inactive: -0.06	inactive: 0.046	inactive: -0.193	inactive: 0.075	inactive: 0.006	
DMTF1 (UniProt Q9Y222)	inactive: 0.018	inactive: 0.009	inactive: 0		inactive: -0.13		inactive: 0.017		inactive: 0.11		inactive: -0.051	inactive: -0.316	inactive: -0.009		inactive: -0.125			inactive: 0.039	inactive: 0.197	inactive: -0.016
DLD (UniProt P09622)	inactive: 0.055	inactive: 0.015	inactive: -0.029	inactive: 0.008	inactive: 0.01	inactive: -0.041	inactive: -0.023	inactive: -0.011	inactive: 0.047	inactive: -0.003	inactive: -0.106	inactive: -0.032	inactive: 0.004	inactive: -0.024	inactive: -0.056	inactive: -0.096	inactive: 0.036	inactive: -0.015	inactive: 0.067	
DEGS1 (UniProt O15121)	inactive: 0.088	inactive: -0.022	active: -0.521	inactive: 0.046	inactive: -0.18	inactive: 0.002	inactive: 0.029	inactive: 0.002	inactive: 0.106		inactive: -0.048	inactive: 0.027	inactive: 0.039	inactive: 0.028	inactive: -0.013	inactive: -0.002	inactive: -0.018	inactive: -0.034	inactive: 0	
DHCR7 (UniProt Q9UBM7)	inactive: 0.412	inactive: -0.033	inactive: 0.087	inactive: -0.181	inactive: -0.01	inactive: 0.143	inactive: 0.087	inactive: 0.084	inactive: -0.048	inactive: -0.182	inactive: -0.025	inactive: -0.088	inactive: -0.278	inactive: 0.01	inactive: 0.101	inactive: 0.088	inactive: -0.167	inactive: -0.009	inactive: -0.115	
DDX39A (UniProt O00148)	inactive: 0.018	inactive: -0.149	inactive: 0.007	inactive: -0.143	inactive: -0.213	inactive: 0.111	inactive: -0.041	inactive: -0.016	inactive: -0.032	inactive: 0.135	inactive: -0.021	inactive: -0.017	inactive: -0.093	inactive: 0.066	inactive: -0.16	inactive: -0.015	inactive: -0.028	inactive: -0.007	inactive: 0.012	
DDX11 (UniProt Q96FC9)	inactive: -0.016	inactive: -0.248	inactive: -0.034	inactive: -0.035	inactive: -0.052		inactive: -0.005		inactive: 0.118	inactive: -0.069	inactive: 0.144		inactive: -0.05	inactive: 0.088	inactive: 0.047	inactive: -0.009	active: 0.437	inactive: -0.045		
DNAAF2 (UniProt Q9NVR5)	inactive: 0.048	inactive: 0	inactive: -0.042	inactive: 0.01	inactive: -0.142	inactive: 0.031	inactive: -0.033	inactive: 0.026	inactive: 0.043	inactive: 0.009	inactive: -0.012	inactive: 0.016	inactive: -0.033	inactive: 0.005	inactive: 0.015	inactive: 0.035	inactive: 0.062	inactive: -0.026	inactive: 0.232	
DDX47 (UniProt Q9H0S4)	inactive: -0.168	inactive: -0.071			inactive: -0.066		inactive: 0.177		inactive: 0.062	inactive: -0.064	inactive: 0.326	inactive: 0.061	inactive: 0.189	inactive: -0.125		inactive: -0.045	inactive: -0.319			inactive: 0.455
DDHD1 (UniProt Q8NEL9)	inactive: -0.354	inactive: -0.032		inactive: 0.006			inactive: -0.159			inactive: 0.115	inactive: -0.057				inactive: 0.225			inactive: -0.091	inactive: 0.103	

Part of the list above, set out differently:
Target,log2 fold change [1],log2 fold change [2],log2 fold change [3],log2 fold change [4],log2 fold change [5],log2 fold change [6],log2 fold change [7],log2 fold change [8],log2 fold change [9],log2 fold change [10],log2 fold change [11],log2 fold change [12],log2 fold change [13],log2 fold change [14],log2 fold change [15],log2 fold change [16],log2 fold change [17],log2 fold change [18],log2 fold change [19],log2 fold change [20]
DFFB (UniProt O76075),inactive: 0.017,inactive: 0.052,inactive: 0.07,inactive: 0.009,inactive: 0.024,inactive: 0.049,inactive: -0.016,inactive: -0.019,inactive: 0.033,inactive: -0.016,inactive: -0.141,inactive: -0.093,inactive: -0.03,inactive: -0.004,inactive: 0.06,inactive: -0.054,inactive: 0.041,inactive: -0.015,inactive: -0.074,
DDX11 (UniProt Q96FC9),inactive: -0.016,inactive: -0.248,inactive: -0.034,inactive: -0.035,inactive: -0.052,,inactive: -0.005,,inactive: 0.118,inactive: -0.069,inactive: 0.144,,inactive: -0.05,inactive: 0.088,inactive: 0.047,inactive: -0.009,active: 0.437,inactive: -0.045,,
